Data published in PubChem BioAssay AID328 (DTP/NCI, 2004).
The list is a part of this screen's results and no random one: it is rich in T/C values a quarter to a half above the control, in often repeated tests (any T/C) and in doses without a T/C. Other doses and runs of a compound stand elsewhere. T/C: endpoint of the treated group in % of that of the vehicle group. Some doses have a count of surviving animals in place of a T/C: the source files T/C as zero there, which appears to mark a toxic dose or a test without result, not a measured value. Some doses without a T/C left all or most animals alive at the check, yet need not have been tolerated: survival well below the control is almost never listed, so the zero probably covers shortened survival too. Counts of survivors are from the toxicity check (mostly the fifth day) where no day follows; animals may have died later. Schedule codes are those of the source, read here as Q, the interval in days (D) or hours (H), X, the number of doses. Some entries hold several experiments; the values are given in rising order. For survival time, the PubChem record calls one and a half times the control and up active, and a quarter to a half above the control has no call in these data; cut-offs in other NCI protocols can differ. Marks such as (2×) say how often a value occurs here. Some T/C values carry the count of animals alive at the toxicity check (mostly the fifth day); where none is given, no animal had died by that day.

Tested on: BDF1 mice, P388 leukemia ip, median survival T/C
Assay: NCI In Vivo Anticancer Drug Screen. Data for tumor model P388 Leukemia (intraperitoneal) in B6D2F1 (BDF1) mice
Settings: T/C endpoint: median survival time, higher T/C = longer survival
How it was run: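 Compound-treated tumour-bearing mice were compared with vehicle-treated controls. Survival was recorded, and the value is the treated-group measurement divided by the control-group measurement (T/C).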

[1] = dose: 67.0 mg/kg/injection, schedule: Q04DX003 (ip), vehicle: Klucel (hydroxypropylcellulose) (HPC)
[2] = dose: 100.0 mg/kg/injection, schedule: Q01DX009 (ip), vehicle: Klucel (hydroxypropylcellulose) (HPC)
[3] = dose: 100.0 mg/kg/injection, schedule: Q01DX009 (ip), vehicle: saline
[4] = dose: 100.0 mg/kg/injection, schedule: Q04DX003 (ip), vehicle: Klucel (hydroxypropylcellulose) (HPC)
[5] = dose: 150.0 mg/kg/injection, schedule: Q04DX003 (ip), vehicle: Klucel (hydroxypropylcellulose) (HPC)
[6] = dose: 200.0 mg/kg/injection, schedule: Q01DX009 (ip), vehicle: Klucel (hydroxypropylcellulose) (HPC)
[7] = dose: 200.0 mg/kg/injection, schedule: Q01DX009 (ip), vehicle: saline
[8] = dose: 200.0 mg/kg/injection, schedule: Q04DX003 (ip), vehicle: Klucel (hydroxypropylcellulose) (HPC)
[9] = dose: 200.0 mg/kg/injection, schedule: Q01DX009 (ip), vehicle: saline with Tween-80
[10] = dose: 400.0 mg/kg/injection, schedule: Q01DX009 (ip), vehicle: saline with Tween-80
[11] = dose: 400.0 mg/kg/injection, schedule: Q04DX003 (ip), vehicle: saline with Tween-80
[12] = dose: 50.0 mg/kg/injection, schedule: Q01DX009 (ip), vehicle: saline with Tween-80
[13] = dose: 100.0 mg/kg/injection, schedule: Q01DX009 (ip), vehicle: saline with Tween-80

In the case of C/C(=C\c1ccccc1)[N+](=O)[O-], the T/C (dose: 16.0 mg/kg/injection, schedule: Q01DX009 (ip), vehicle: Klucel (hydroxypropylcellulose) (HPC)) is reported as 146 % of control, the survivor count (dose: 25.0 mg/kg/injection, schedule: Q04DX003 (ip), vehicle: saline) is reported as 6 of 6 and the T/C (dose: 30.0 mg/kg/injection, schedule: Q04DX003 (ip), vehicle: Klucel (hydroxypropylcellulose) (HPC)) is reported as 125 % of control. The T/C (dose: 32.0 mg/kg/injection, schedule: Q01DX009 (ip), vehicle: Klucel (hydroxypropylcellulose) (HPC)) was 138 % of control, the T/C (dose: 44.0 mg/kg/injection, schedule: Q04DX003 (ip), vehicle: Klucel (hydroxypropylcellulose) (HPC)) was 140 % of control (2×) and the survivor count (dose: 50.0 mg/kg/injection, schedule: Q01DX009 (ip), vehicle: saline) was 3 of 6. The T/C (dose: 50.0 mg/kg/injection, schedule: Q04DX003 (ip), vehicle: saline) was 127 % of control, the survivor count (dose: 64.0 mg/kg/injection, schedule: Q01DX009 (ip), vehicle: Klucel (hydroxypropylcellulose) (HPC)) was 4 of 6 and the T/C [1] was 145 % of control (2×). For the same compound, the survivor count [1] was 5 of 6, the survivor count [2] was 1 of 6 and 2 of 6 and the survivor count [3] was 4 of 6. The T/C [4] was 110, 130, 140 % of control, the survivor count [4] was 4 of 6 and the survivor count (dose: 100.0 mg/kg/injection, schedule: Q04DX003 (ip), vehicle: saline) was 6 of 6. For the same compound, the survivor count (dose: 150.0 mg/kg/injection, schedule: Q01DX009 (ip), vehicle: Klucel (hydroxypropylcellulose) (HPC)) was 0 of 6, the T/C [5] was 125 % of control [5 of 6 alive] and the survivor count [5] was 2 of 6 and 4 of 6. For the same compound, the survivor count [6] was 0 of 6, the survivor count [7] was 1 of 6 and the survivor count (dose: 200.0 mg/kg/injection, schedule: Q04DX003 (ip), vehicle: saline) was 6 of 6.

For COC1OC(COS(=O)(=O)c2ccc(C)cc2)C2OC(C)(C)OC12 (stereo not drawn), the survivor count [6] was 6 of 6.

With CCC[As](CCC)SC1OC(COC(C)=O)C(OC(C)=O)C(OC(C)=O)C1OC(C)=O (stereo not drawn) the T/C (dose: 100.0 mg/kg/injection, schedule: Q01DX009 (ip), vehicle: saline + alcohol) was 125 % of control, the survivor count (dose: 200.0 mg/kg/injection, schedule: Q01DX009 (ip), vehicle: saline + alcohol) was 2 of 6 and the survivor count (dose: 400.0 mg/kg/injection, schedule: Q01DX009 (ip), vehicle: saline + alcohol) was 0 of 6.

With NC(CSC(c1ccccc1)(c1ccccc1)c1ccc(F)cc1)C(=O)O (stereo not drawn) the T/C (dose: 3.13 mg/kg/injection, schedule: Q01DX009 (ip), vehicle: Klucel (hydroxypropylcellulose) (HPC)) was 130 % of control, the T/C (dose: 6.25 mg/kg/injection, schedule: Q01DX009 (ip), vehicle: Klucel (hydroxypropylcellulose) (HPC)) was 130 % of control and the T/C (dose: 6.6 mg/kg/injection, schedule: Q01DX009 (ip), vehicle: Klucel (hydroxypropylcellulose) (HPC)) was 131 % of control. For the same compound, the T/C (dose: 9.9 mg/kg/injection, schedule: Q01DX009 (ip), vehicle: Klucel (hydroxypropylcellulose) (HPC)) was 127 % of control, the T/C (dose: 15.0 mg/kg/injection, schedule: Q01DX009 (ip), vehicle: Klucel (hydroxypropylcellulose) (HPC)) was 144 % of control and the T/C (dose: 22.0 mg/kg/injection, schedule: Q04DX003 (ip), vehicle: Klucel (hydroxypropylcellulose) (HPC)) was 127 % of control. The T/C (dose: 33.0 mg/kg/injection, schedule: Q04DX003 (ip), vehicle: Klucel (hydroxypropylcellulose) (HPC)) was 145 % of control [5 of 6 alive], the T/C (dose: 50.0 mg/kg/injection, schedule: Q04DX003 (ip), vehicle: Klucel (hydroxypropylcellulose) (HPC)) was 135 % of control and the survivor count [2] was 0 of 6. The survivor count (dose: 132.0 mg/kg/injection, schedule: Q04DX003 (ip), vehicle: Klucel (hydroxypropylcellulose) (HPC)) was 6 of 6, the survivor count [6] was 0 of 6 and the survivor count [8] was 6 of 6. For the same compound, the survivor count (dose: 300.0 mg/kg/injection, schedule: Q04DX003 (ip), vehicle: Klucel (hydroxypropylcellulose) (HPC)) was 6 of 6.

C/C(=C\COc1ccc2ccc(=O)oc2c1)C1=CC(=O)C(C)(C)O1 was tested, and the T/C [9] was 130 % of control and the T/C [10] was 130 % of control.

CC1(NC(=O)N(CCCl)N=O)CCCC1 was tested, and the survivor count [11] was 2 of 6.

For CC(=O)OC1CCC2(C)C3CCC4(C)C(=CCC5(C(=O)O)CCC(C)(C)CC45)C3(C)CCC2C1(C)C (stereo not drawn), the T/C (dose: 1.4 mg/kg/injection, schedule: Q01DX009 (ip), vehicle: alcohol) was 128 % of control.

NC(Cc1ccc(O)cc1)C(=O)N/N=C/c1ccc(N(CCCl)CCCl)cc1 (stereo not drawn) was tested, and the T/C (dose: 40.0 mg/kg/injection, schedule: Q04DX003 (ip), vehicle: Klucel (hydroxypropylcellulose) (HPC)) was 129 and 138 % of control and the survivor count (dose: 400.0 mg/kg/injection, schedule: Q04DX003 (ip), vehicle: Klucel (hydroxypropylcellulose) (HPC)) was 5 of 6.

In the case of CCSc1ncnc2c1ncn2CN1CCOCC1, the T/C [3] is reported as 130 % of control and the survivor count (dose: 220.0 mg/kg/injection, schedule: Q01DX009 (ip), vehicle: saline) is reported as 5 of 6.

S=c1nc[nH]c2c1ncn2C1CCCC1 was tested, and the survivor count [10] was 5 of 6.

O=C(O)CCCNSc1ccccc1[N+](=O)[O-] was tested, and the T/C [12] was 139 % of control and the survivor count [9] was 1 of 6.

O=C1C(C(O)c2ccccc2)SC(c2ccccc2)N1c1ccccc1 (stereo not drawn) was tested, and the survivor count [4] was 5 of 6 and the survivor count [8] was 6 of 6.

For O=C1NC(=O)C(c2ccc(C(F)(F)F)cc2)(c2ccc(C(F)(F)F)cc2)N1, the survivor count [13] was 5 of 6, the survivor count [9] was 2 of 6 and the survivor count [10] was 0 of 6.

In the case of Brc1cnn2c1NCC2, the survivor count (dose: 100.0 mg/kg/injection, schedule: Q04DX003 (ip), vehicle: water) is reported as 3 of 6, the survivor count (dose: 200.0 mg/kg/injection, schedule: Q04DX003 (ip), vehicle: water) is reported as 5 of 6 and the survivor count (dose: 400.0 mg/kg/injection, schedule: Q04DX003 (ip), vehicle: water) is reported as 4 of 6.

In the case of CC(=O)C(c1ccccc1)[N+](C)(C)C (stereo not drawn), the survivor count (dose: 200.0 mg/kg/injection, schedule: Q04DX003 (ip), vehicle: other) is reported as 2 of 6 and the survivor count (dose: 400.0 mg/kg/injection, schedule: Q04DX003 (ip), vehicle: other) is reported as 0 of 6.

C[C@@H]1CN(C(=O)CCOS(C)(=O)=O)[C@@H](C)CN1C(=O)CCOS(C)(=O)=O was tested, and the T/C (dose: 25.0 mg/kg/injection, schedule: Q04DX003 (ip), vehicle: saline with Tween-80) was 145 % of control, the T/C (dose: 100.0 mg/kg/injection, schedule: Q04DX003 (ip), vehicle: saline with Tween-80) was 140 % of control and the survivor count [10] was 6 of 6. The survivor count (dose: 600.0 mg/kg/injection, schedule: Q04DX003 (ip), vehicle: saline with Tween-80) was 5 of 5.

With Nc1ccccc1C(=O)N/N=C\c1ccc(O)cc1 the T/C [12] was 126 % of control.

With CCCCN=C(N)N=C(N)N the survivor count [7] was 0 of 6.

For O=[N+]([O-])c1ccccc1N=N/C(Cc1ccccc1)=N\Nc1ccccc1, the survivor count (dose: 400.0 mg/kg/injection, schedule: Q01DX009 (ip), vehicle: Klucel (hydroxypropylcellulose) (HPC)) was 4 of 6.

In the case of Cc1cc(N)c2cc(NC(=O)CCCCCC(=O)Nc3ccc4nc(C)cc(N)c4c3)ccc2n1, the survivor count [13] is reported as 0 of 6, the survivor count [9] is reported as 0 of 6 and the survivor count [10] is reported as 0 of 6.

For CC(C)=NNC(=O)c1ccccc1, the survivor count [3] was 6 of 6, the survivor count (dose: 200.0 mg/kg/injection, schedule: Q04DX003 (ip), vehicle: saline with Tween-80) was 4 of 6 and the survivor count [11] was 0 of 6.

In the case of OC(COc1cccc(C(F)(F)F)c1)CN1CCN(c2ccc(F)cc2)CC1 (stereo not drawn), the survivor count [9] is reported as 2 of 6.

In the case of C[C@]12CC[C@H](O)C[C@@H]1CC[C@@H]1[C@@H]2C(=O)C[C@@]2(C)[C@H]1CC[C@]2(O)C(=O)CBr, the T/C (dose: 25.0 mg/kg/injection, schedule: Q01DX009 (ip), vehicle: saline with Tween-80) is reported as 125 % of control, the T/C [12] is reported as 131 and 137 % of control and the T/C [13] is reported as 141 % of control. For the same compound, the survivor count [13] was 6 of 6 and the T/C [6] was 131 % of control.
